The source holds more than one record for some entries. They are shown here; other results are not. The source may hold further records. Results that share an entry differ, and nothing given here explains why; dose, time, organism, isomer or construct need not be as stated for each record.
Target: human cathepsin K (Homo sapiens, UniProt P43235)
Assay: Cathepsin K inhibition assay, human recombinant enzyme, fluorogenic substrate Cbz-Phe-Arg-AMC
Conditions: read-out: h Cat K IC50

The chains behind the UniProt entries cited, without tags or fusion partners. Residues count along the entry.
UniProt P43235, 115-329 limits assumed: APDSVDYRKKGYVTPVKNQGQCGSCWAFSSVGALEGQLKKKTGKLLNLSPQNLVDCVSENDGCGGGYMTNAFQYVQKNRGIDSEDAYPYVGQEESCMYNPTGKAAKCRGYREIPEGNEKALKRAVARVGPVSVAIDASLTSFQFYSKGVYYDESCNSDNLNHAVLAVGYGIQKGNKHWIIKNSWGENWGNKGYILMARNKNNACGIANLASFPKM

In the case of `CCCC[C@H](NC(=O)OC1C(=O)NCC1(C)C)C(=O)C(=O)N[C@H](C)c1ccccc1` (single isomer, unassigned), the IC50 is reported as 1 nM to 10 nM and 10 nM to 100 nM.

From US7402606B2, “Derivatives of 1-(oxoaminoacetyl) pentylcarbamate as cathepsin K inhibitors for the treatment of bone loss” (SmithKline Beecham Corporation, priority 2002, dated 2008)
